Experimental data from PMC10163288.
Some of the results follow.

B1: il10ra_site1_normal_mot_HHH_b2_00984_000000042_0001_1_20_H_._HHH_b1_06735_0001_0000100004_0000002_0 (protein)
chain: SSSSSDEELEERIRELLEELEEITDPKEFSRVAVEALRLIYELQDPELLQALWRIIKEWSSSSSS
B2: il10ra_site1_sap_18_mot_HHH_b1_00566_000000151_0001_22_39_H_._HHH_b1_01048_0001_0000300026_0000001_0_0001 (protein)
chain: SSSSDNRELFELSRKAAELLSNGNPEEAEKLLERAQEIAEEANNDVLLFIIRYVLRIVEENSSSS
B3: il10ra_site1_sap_20_mot_HHH_b2_06507_af2_000000245_0001_1_17_H_._HHH_b2_04638_af2_0001_0000100003_0000001_0_0001_af2pred_0001 (protein)
chain: SKIEEILRELLEEDPHNSLVLSALLLFEQERELGAPPEHVERAVEAALRLFGDPEAEEIIEELRK
B4: il10ra_site1_sap_12_mot_HHH_b2_07579_000000275_0001_1_19_H_._HHH_b1_05644_0001_0000100003_0000001_0_0001_af2pred_0001 (protein)
chain: SSSSDERLELTLKMIKFALEEGDPEAAKRLARAAADLARKDGDEELLEEIERLLKEAEELLSSSS
B5: il10ra_site1_sap_14_mot_HHH_b1_06786_000000000_0001_1_20_H_._HHH_b1_03651_0001_0000300016_0000001_0_0001 (protein)
chain: SSSSDEAEERIVRLILRVARLFIRGDREEARKVLEEAEELAEENNDEELERAIEIAREAIDSSSS
B6: il10ra_site1_sap_23_mot_HHH_b2_00984_000000042_0001_1_20_H_._HHH_b2_05675_0001_0000200025_0000001_0_0001 (protein)
chain: SSSSDEEEEVEELLKELEELVKRNDEEEFAQVAARIMRLIYELGDPRLAEELIRILAKFLNSSSS
B7: il10ra_site1_normal_mot_HHH_b2_00230_000000227_0001_1_19_H_._HHH_b1_04853_0001_0000100025_0000001_0 (protein)
chain: SSSSDEAYELARKFIEEIVRLLREGDREEAERLAEELLELLRELGNEAATFAVEQLLRLVRSSSS
B8: il10ra_site1_normal_mot_HHH_b1_05672_af2_000000246_0001_1_19_H_._HHH_b2_08346_af2_0001_0000100008_0000001_0 (protein)
chain: SSSDEEQRIAQLLFRAVRALFNGNPEEAKKLVEEAEELARELGDEELERYIEIAKHFIEAHSSSS
B9: il10ra_site1_normal_mot_HHH_b1_06816_000000239_0001_1_19_H_._HHH_b1_05245_af2_0001_0000500032_0000001_0_af2pred_0001 (protein)
chain: SSSDEEEAEEIFEKAEELIKRLLEEGDPEEASKVLREAIELLLRLGNPHLARELSRLFIELSSSS
B10: il10ra_site1_normal_mot_HHH_b2_06142_af2_000000101_0001_1_18_H_._HHH_b2_05708_0001_0000200018_0000002_0_af2pred_dldesign_0_af2pred (protein)
chain: SSSSDLEELLRRLAQLRTQVSKEKAKELFDAMVEAHKLLQAGKPEEAKKVLEEAIAKALESSSSS
B11: il10ra_site1_sap_22_mot_HHH_b1_05185_000000011_0001_22_39_H_._HHH_b1_06411_0001_0000200014_0000002_0_0001 (protein)
chain: SSSSSEEEQELKELLEELEELLKEGDEERFLELAQRISRLALRAKDKEVMRRVDQLAIEFYSSSS
B12: il10ra_site1_sap_25_mot_HHH_b1_05056_000000217_0001_1_20_H_._HHH_b2_03638_0001_0000300027_0000001_0_0001 (protein)
chain: SSSSSEERVEELIEEAEELLERGDPREAIKVLQEALRLVYQLGNEELLQKVWELALKVANKSSSS
B13: il10ra_site1_normal_mot_HHH_b1_02997_000000220_0001_39_52_H_._HHH_b1_01446_af2_0001_0000600038_0000001_0 (protein)
chain: SSSSSDETERVIELIRQAFEIEDPEEVEELLEEARELAEEANNENARINVEYLLRILENSSSSSS
B14: il10ra_site1_normal_mot_HHH_b2_00479_000000091_0001_1_12_H_._HHH_b2_02732_0001_0000300022_0000001_0_af2pred_dldesign_0_af2pred (protein)
chain: SSSSSSEEVRKEVEELLEKLFKVNPDEALALLKKALDLAADNDDAELQARIREATRKWLESSSSS
B15: il10ra_site1_normal_mot_HHH_b1_06789_af2_000000041_0001_1_20_H_._HHH_b2_03029_0001_0000300011_0000002_0 (protein)
chain: SSSSSAEYLVRQALKAAKRLYEQGDPERAKEAIEIAENLARNANNPELEKLVEEFAEELENSSSS
B16: il10ra_site1_sap_21_mot_HHH_b1_00682_000000211_0001_1_20_H_._HHH_b2_04588_0001_0000400026_0000001_0_0001_af2pred_0001 (protein)
chain: SSSSDEEKRALHLALRAAELIQEGDEEEARKVIEELEEIVEKIGDEKLKLTVRFEKALLRSSSSS
B17: il10ra_site1_normal_mot_HHH_b2_00612_000000251_0001_1_14_H_._HHH_b2_04981_0001_0000200014_0000002_0 (protein)
chain: SSSSDEEFEEVRRLLEHASELAQEGDKEEAERLVEEAIELAREGGNQLLTESAEYLLRIIRSSSS
B18: il10ra_site1_normal_mot_HHH_b1_05357_000000034_0001_23_39_H_._HHH_b2_02453_0001_0000200006_0000001_0 (protein)
chain: SSSSDVEEELEELLEEAKRIEDRARLSHVLIRAYALATHRNDPELEEFVREEALKIFDEGSSSSS
B19: il10ra_site1_sap_33_mot_HHH_b2_07521_000000141_0001_20_37_H_._HHH_b2_01915_0001_0000700039_0000001_1_0001 (protein)
chain: SSSSSEEVEELLEQARELAEEGDFEEAAKLLLEALQIAAELQDPELLRLVWEVLHEVARLNSSSS
B20: il10ra_site1_normal_mot_HHH_b2_07521_000000141_0001_20_37_H_._HHH_b1_02137_0001_0000100002_0000001_0_af2pred_0001 (protein)
chain: SSSSDKEEEFVELAIRFAEWLAEQGDPEAAKIVLRAAKRAAELANDEELQEKIEKVLEEISSSSS
B21: il10ra_site1_normal_mot_HHH_b1_02881_000000046_0001_1_20_H_._HHH_b1_02511_af2_0001_0000900024_0000001_0 (protein)
chain: SSSSSDVEERAEKIFEQLEELLERRDADEFYRLIRELIELAVEYNSEEVLKLVREILERLSSSSS
B22: il10ra_site1_normal_mot_HHH_b2_01397_000000078_0001_23_39_H_._HHH_b2_02890_0002_0000100003_0000001_0 (protein)
chain: SSSSSVAERSVRRLLEAAKHIDDPEYVKLTLKFAKALARSENNEELEREIEKVEKELEELLSSSS
B23: il10ra_site1_sap_7_mot_HHH_b2_00984_000000042_0001_1_20_H_._HHH_b1_04665_0001_0000200011_0000002_0_0001 (protein)
chain: SSSSDQEVVELLREAFRLMLRGNPEEAKEVLEEARQLAEEANDERALKMVRDLLAIIESHSSSSS
B24: il10ra_site1_sap_24_mot_HHH_b1_04582_000000276_0001_1_18_H_._HHH_b2_03365_0001_0000400018_0000001_0_0001 (protein)
chain: SSSSSDIAEVAQEALELAIRLGDAETVRAIWRLVREYFEKGDPEIEEELEELLEELRERGSSSSS

Target: il10ra, Q13651
Assay: yeast display titration

| Binder | apparent Kd |
| --- | --- |
| B1 | inactive: no binding seen |
| B2 | inactive: no binding seen |
| B3 | inactive: no binding seen |
| B4 | inactive: no binding seen |
| B5 | inactive: no binding seen |
| B6 | inactive: no binding seen |
| B7 | inactive: no binding seen |
| B8 | inactive: no binding seen |
| B9 | inactive: no binding seen |
| B10 | inactive: no binding seen |
| B11 | inactive: no binding seen |
| B12 | inactive: no binding seen |
| B13 | inactive: no binding seen |
| B14 | inactive: no binding seen |
| B15 | inactive: no binding seen |
| B16 | inactive: no binding seen |
| B17 | inactive: no binding seen |
| B18 | inactive: no binding seen |
| B19 | inactive: > 2.78 µM |
| B20 | inactive: no binding seen |
| B21 | inactive: no binding seen |
| B22 | inactive: no binding seen |
| B23 | inactive: no binding seen |
| B24 | inactive: no binding seen |

As a short view, some entries already given.

| Binder | apparent Kd |
| --- | --- |
| B1 | inactive: no binding seen |
| B2 | inactive: no binding seen |
